Experimental data: the supplement of paper PMC7666118
The other results are listed elsewhere or left out.

Amino acid sequences for entries named in this document (tags omitted). A change or cut given only in a name is not applied to a line headed by its entry.
UniProt Q8N183: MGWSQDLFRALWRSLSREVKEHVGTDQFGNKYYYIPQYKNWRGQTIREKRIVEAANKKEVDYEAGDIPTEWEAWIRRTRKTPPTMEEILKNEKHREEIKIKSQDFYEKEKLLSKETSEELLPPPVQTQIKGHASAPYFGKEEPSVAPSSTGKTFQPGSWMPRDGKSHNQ
UniProt P84157: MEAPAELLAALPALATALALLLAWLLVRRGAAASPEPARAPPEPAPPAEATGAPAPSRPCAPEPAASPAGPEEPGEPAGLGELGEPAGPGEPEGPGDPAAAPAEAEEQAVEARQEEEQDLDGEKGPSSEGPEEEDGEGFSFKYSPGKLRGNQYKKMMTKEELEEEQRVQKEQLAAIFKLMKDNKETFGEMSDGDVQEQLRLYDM
UniProt Q86UD5: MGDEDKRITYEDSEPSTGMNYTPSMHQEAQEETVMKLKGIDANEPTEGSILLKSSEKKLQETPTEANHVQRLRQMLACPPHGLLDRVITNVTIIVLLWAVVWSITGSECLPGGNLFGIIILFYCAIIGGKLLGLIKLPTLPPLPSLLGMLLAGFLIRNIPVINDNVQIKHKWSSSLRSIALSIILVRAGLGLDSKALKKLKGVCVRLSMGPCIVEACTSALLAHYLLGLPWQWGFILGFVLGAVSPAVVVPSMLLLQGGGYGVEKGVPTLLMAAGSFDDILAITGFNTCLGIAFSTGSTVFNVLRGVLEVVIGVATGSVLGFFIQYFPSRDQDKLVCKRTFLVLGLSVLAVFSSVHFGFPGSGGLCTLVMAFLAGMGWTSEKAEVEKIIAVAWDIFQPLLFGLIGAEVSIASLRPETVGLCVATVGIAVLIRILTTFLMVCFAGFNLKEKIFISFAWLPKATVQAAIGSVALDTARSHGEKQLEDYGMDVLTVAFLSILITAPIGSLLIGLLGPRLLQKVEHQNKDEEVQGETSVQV
UniProt Q9NX14, whole entry: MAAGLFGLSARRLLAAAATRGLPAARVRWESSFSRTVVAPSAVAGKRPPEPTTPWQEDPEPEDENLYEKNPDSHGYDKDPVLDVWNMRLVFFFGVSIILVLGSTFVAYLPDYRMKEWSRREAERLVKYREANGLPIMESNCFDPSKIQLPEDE
UniProt Q9UJ68: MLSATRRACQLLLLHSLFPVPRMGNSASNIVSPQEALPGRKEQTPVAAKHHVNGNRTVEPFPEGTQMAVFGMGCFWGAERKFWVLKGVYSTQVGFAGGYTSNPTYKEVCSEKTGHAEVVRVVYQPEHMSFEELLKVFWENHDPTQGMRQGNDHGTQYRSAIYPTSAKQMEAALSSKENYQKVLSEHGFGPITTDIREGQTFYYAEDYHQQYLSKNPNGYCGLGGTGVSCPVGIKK
UniProt O75438, whole entry: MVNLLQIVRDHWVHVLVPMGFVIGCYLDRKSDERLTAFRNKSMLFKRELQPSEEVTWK
UniProt Q5JPE7: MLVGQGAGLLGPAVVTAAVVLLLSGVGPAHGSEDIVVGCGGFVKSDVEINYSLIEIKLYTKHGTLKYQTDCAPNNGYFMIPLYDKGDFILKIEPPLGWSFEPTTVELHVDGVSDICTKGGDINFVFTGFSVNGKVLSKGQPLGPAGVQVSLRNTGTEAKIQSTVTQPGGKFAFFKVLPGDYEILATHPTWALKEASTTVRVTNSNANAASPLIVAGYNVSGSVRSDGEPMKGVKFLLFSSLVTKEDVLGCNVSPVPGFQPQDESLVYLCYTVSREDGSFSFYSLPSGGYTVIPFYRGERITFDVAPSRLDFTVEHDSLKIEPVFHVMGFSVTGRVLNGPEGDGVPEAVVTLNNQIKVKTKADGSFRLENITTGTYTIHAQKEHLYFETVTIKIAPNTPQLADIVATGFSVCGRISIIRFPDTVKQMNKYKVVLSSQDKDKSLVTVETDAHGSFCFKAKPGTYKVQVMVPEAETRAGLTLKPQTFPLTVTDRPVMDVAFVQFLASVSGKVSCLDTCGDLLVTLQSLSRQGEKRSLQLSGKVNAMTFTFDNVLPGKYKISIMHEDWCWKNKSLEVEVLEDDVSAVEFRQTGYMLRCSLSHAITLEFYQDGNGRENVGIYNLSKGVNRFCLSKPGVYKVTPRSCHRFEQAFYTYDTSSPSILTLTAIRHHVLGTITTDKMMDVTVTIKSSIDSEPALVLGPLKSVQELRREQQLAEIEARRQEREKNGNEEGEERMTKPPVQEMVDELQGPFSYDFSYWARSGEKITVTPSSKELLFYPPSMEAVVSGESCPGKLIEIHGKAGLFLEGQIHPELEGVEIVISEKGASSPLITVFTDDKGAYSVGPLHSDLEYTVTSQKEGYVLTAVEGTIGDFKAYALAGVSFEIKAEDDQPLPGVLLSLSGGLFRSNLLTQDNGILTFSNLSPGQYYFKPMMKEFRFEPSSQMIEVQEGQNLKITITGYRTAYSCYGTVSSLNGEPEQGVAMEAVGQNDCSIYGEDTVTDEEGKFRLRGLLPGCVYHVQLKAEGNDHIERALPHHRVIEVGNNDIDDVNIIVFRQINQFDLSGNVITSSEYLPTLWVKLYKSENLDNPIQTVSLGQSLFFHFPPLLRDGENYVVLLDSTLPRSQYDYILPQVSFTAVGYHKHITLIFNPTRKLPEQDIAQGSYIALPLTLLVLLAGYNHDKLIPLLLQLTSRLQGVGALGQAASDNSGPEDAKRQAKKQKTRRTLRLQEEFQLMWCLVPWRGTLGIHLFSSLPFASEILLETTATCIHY
UniProt P42695: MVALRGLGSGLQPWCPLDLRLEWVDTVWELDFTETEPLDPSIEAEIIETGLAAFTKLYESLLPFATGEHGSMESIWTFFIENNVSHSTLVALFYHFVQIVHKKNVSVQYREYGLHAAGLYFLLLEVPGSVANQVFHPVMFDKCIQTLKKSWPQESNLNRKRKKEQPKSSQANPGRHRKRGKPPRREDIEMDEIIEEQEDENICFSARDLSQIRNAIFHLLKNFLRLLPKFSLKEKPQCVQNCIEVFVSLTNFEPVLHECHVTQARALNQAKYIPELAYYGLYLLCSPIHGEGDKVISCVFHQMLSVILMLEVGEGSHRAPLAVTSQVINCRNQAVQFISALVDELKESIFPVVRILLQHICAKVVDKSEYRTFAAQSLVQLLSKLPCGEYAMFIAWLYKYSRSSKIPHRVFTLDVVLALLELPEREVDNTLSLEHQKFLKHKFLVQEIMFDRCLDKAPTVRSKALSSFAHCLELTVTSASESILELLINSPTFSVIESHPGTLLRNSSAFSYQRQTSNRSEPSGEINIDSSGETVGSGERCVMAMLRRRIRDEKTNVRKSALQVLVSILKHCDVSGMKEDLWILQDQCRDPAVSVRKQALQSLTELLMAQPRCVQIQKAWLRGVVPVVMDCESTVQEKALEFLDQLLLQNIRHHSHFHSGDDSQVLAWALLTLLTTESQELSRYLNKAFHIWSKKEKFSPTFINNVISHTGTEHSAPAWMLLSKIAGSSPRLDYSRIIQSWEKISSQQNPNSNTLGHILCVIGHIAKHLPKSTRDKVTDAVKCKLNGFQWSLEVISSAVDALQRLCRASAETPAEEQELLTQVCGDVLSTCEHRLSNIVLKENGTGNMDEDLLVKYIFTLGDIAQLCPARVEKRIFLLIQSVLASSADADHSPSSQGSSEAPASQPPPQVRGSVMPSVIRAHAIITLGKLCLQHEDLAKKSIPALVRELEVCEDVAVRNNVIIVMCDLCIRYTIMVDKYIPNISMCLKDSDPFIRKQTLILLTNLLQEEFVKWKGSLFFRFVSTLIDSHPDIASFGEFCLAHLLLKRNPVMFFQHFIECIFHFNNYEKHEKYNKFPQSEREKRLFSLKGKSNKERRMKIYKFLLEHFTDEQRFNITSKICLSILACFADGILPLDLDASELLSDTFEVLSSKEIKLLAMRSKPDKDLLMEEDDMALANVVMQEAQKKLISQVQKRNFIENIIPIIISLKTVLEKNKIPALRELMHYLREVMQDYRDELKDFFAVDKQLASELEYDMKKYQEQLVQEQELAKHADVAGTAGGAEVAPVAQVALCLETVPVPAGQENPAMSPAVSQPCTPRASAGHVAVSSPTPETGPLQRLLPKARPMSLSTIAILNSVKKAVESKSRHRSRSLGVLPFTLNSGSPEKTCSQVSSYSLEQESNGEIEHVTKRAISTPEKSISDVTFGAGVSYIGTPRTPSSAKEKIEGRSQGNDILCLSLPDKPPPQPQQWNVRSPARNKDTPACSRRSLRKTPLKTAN
UniProt Q7RTR2: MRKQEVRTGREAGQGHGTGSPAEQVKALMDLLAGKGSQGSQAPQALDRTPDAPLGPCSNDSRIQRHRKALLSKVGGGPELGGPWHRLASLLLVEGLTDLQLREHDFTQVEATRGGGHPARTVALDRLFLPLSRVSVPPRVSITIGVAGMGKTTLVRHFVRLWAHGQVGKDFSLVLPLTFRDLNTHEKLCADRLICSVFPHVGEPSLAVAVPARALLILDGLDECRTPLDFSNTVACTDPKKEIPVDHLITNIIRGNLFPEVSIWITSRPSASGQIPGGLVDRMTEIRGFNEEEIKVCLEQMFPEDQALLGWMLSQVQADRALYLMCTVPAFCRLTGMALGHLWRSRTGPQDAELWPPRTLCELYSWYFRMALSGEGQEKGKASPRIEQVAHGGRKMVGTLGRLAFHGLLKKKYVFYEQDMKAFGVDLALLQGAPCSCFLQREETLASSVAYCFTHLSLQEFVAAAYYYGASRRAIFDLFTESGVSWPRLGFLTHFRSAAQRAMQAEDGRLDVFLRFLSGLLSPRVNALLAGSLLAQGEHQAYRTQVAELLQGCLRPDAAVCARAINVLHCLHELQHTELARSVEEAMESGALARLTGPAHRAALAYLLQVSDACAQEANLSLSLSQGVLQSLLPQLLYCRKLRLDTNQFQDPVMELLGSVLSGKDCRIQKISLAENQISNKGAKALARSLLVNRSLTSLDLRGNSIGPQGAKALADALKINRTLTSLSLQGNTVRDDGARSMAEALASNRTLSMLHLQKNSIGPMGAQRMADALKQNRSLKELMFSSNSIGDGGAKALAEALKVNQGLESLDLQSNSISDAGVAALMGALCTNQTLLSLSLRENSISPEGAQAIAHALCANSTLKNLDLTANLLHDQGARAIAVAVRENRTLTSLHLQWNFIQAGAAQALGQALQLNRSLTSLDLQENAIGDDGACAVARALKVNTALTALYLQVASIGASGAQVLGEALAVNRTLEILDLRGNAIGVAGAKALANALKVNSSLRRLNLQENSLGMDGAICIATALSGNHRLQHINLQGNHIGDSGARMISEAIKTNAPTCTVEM
UniProt O95544: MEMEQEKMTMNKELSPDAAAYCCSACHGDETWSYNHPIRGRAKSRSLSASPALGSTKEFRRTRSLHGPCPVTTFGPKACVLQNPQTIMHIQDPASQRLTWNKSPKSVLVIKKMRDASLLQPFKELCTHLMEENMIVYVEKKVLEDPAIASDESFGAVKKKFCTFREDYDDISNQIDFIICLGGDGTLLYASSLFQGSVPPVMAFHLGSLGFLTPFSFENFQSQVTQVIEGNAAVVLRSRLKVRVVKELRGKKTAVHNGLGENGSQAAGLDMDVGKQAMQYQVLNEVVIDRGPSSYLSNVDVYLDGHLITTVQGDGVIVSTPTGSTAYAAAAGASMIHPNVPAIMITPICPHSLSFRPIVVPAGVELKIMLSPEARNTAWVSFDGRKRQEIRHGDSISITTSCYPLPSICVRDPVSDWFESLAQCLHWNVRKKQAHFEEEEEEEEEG
UniProt P52298: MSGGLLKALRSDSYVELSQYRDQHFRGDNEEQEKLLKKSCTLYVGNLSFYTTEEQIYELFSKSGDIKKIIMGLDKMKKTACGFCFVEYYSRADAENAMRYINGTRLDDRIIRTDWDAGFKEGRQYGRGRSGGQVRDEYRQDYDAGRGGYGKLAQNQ
UniProt Q9UI09, whole entry: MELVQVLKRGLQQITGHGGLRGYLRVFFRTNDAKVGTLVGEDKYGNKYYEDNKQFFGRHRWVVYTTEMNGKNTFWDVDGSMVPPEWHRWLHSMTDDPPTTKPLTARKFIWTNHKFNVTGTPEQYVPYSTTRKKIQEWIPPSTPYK
UniProt Q8TAT6: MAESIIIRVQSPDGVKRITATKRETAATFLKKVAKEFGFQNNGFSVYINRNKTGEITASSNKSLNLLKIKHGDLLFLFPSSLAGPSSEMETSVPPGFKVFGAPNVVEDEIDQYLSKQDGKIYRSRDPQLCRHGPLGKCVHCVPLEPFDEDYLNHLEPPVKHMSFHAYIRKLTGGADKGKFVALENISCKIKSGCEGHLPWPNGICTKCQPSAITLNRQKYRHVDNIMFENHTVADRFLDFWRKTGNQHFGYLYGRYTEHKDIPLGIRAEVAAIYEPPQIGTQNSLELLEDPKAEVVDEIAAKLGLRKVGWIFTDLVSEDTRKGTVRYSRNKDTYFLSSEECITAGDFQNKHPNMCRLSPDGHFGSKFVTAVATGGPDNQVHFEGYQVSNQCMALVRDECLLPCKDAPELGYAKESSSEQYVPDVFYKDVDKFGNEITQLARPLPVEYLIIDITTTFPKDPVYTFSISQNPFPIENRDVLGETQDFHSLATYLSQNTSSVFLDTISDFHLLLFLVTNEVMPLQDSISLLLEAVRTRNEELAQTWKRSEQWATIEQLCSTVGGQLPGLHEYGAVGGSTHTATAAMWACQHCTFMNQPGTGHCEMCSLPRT

Each target was assayed with COc1ccc(Cn2ccc3ccc(C(=O)NO)cc32)cc1 (assay: dose-dependent thermal stabilisation call (2D-TPP, DLPTP, 10% FDR) (binary (1 = stabilised)); higher = stabilised by the compound). Settings: system: HL-60 intact cells; concentration range 0.04-10 µM.
MSI2 (UniProt Q96DH6) was tested, and the “dose-dependent thermal stabilisation call” value was inactive: 0.
For N-PAC, the “dose-dependent thermal stabilisation call” value was inactive: 0.
With NDUFAF2 (UniProt Q8N183) the “dose-dependent thermal stabilisation call” value was inactive: 0.
MXRA7 (UniProt P84157) was tested, and the “dose-dependent thermal stabilisation call” value was inactive: 0.
In the case of NCF1B (UniProt A6NI72), the “dose-dependent thermal stabilisation call” value is reported as inactive: 0.
For NPM1 (UniProt P06748), the “dose-dependent thermal stabilisation call” value was inactive: 0.
NHEDC2 (UniProt Q86UD5) was tested, and the “dose-dependent thermal stabilisation call” value was inactive: 0.
In the case of NDUFB11 (UniProt Q9NX14), the “dose-dependent thermal stabilisation call” value is reported as inactive: 0.
In the case of NECAP2 (UniProt Q9NVZ3), the “dose-dependent thermal stabilisation call” value is reported as inactive: 0.
MSRA (UniProt Q9UJ68) was tested, and the “dose-dependent thermal stabilisation call” value was inactive: 0.
ND5 (UniProt P03915) was tested, and the “dose-dependent thermal stabilisation call” value was inactive: 0.
NDUFB1 (UniProt O75438) was tested, and the “dose-dependent thermal stabilisation call” value was inactive: 0.
With NHLRC2 (UniProt Q8NBF2) the “dose-dependent thermal stabilisation call” value was inactive: 0.
With NOMO2 (UniProt Q5JPE7) the “dose-dependent thermal stabilisation call” value was inactive: 0.
In the case of NOTCH2 (UniProt Q04721), the “dose-dependent thermal stabilisation call” value is reported as inactive: 0.
In the case of MTMR1 (UniProt Q13613), the “dose-dependent thermal stabilisation call” value is reported as inactive: 0.
In the case of NFKBIB (UniProt Q15653), the “dose-dependent thermal stabilisation call” value is reported as inactive: 0.
In the case of NCAPD3 (UniProt P42695), the “dose-dependent thermal stabilisation call” value is reported as inactive: 0.
For MTM1 (UniProt Q13496), the “dose-dependent thermal stabilisation call” value was inactive: 0.
With NLRC3 (UniProt Q7RTR2) the “dose-dependent thermal stabilisation call” value was inactive: 0.
For MSL2 (UniProt Q9HCI7), the “dose-dependent thermal stabilisation call” value was inactive: 0.
For NADK (UniProt O95544), the “dose-dependent thermal stabilisation call” value was inactive: 0.
For NCBP2 (UniProt P52298), the “dose-dependent thermal stabilisation call” value was inactive: 0.
With NDUFA12 (UniProt Q9UI09) the “dose-dependent thermal stabilisation call” value was inactive: 0.
For NPLOC4 (UniProt Q8TAT6), the “dose-dependent thermal stabilisation call” value was inactive: 0.
With NBEA (UniProt Q8NFP9) the “dose-dependent thermal stabilisation call” value was inactive: 0.
MRPS36 (UniProt P82909) was tested, and the “dose-dependent thermal stabilisation call” value was inactive: 0.
